PubChem BioAssay AID504808 | Drosophila RNAi Screening Center – 2011

Purpose: 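Fly genes required to hold E2F transcription in check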 (primary screen)
Cells: Drosophila S2 cells
Reagent: long dsRNA against Drosophila genes
Measured: 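Dual luciferase plate measurements; E2F-specific signal taken as firefly over Renilla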
Scale: E2F firefly: higher = more E2F reporter activity; Renilla normaliser: higher = more normaliser reporter signal
Call rule: 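a knock-down counted as active when the firefly/Renilla E2F signal rose above 50%, a threshold chosen arbitrarily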
The deposit covers about 21,000 reagents; shown is a random part of those with a known target gene and a result. Of all reagents, 18 (0.084%) were called active. 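Raw counts without plate normalisation, one of two replicates; the ratio scores behind the calls were not deposited.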 A number with no mark means an inactive call. A plus sign joins genes that one reagent is predicted to hit. Reagent sequences are not shown. Not stated in the record: the amount of reagent, the time to read-out.

gene	PubChem SID	E2F firefly, rep 1	Renilla normaliser, rep 1
rpr	SID104191182	1.59e5	9061
CPT2	SID104188345	87749	3709
iPLA2-VIA	SID104190491	79140	3297
Tsp74F	SID104190300	1.60e5	7953
CG31269	SID104195536	1.10e5	6663
CG16953	SID104194959	62932	3938
PIG-L	SID104195369	1.42e5	7514
Acp53C14b	SID104186361	1.43e5	4781
CG8617	SID104187015	1.06e5	4747
crok	SID104182385	1.10e5	4815
CanB2	SID104187147	59588	3453
CG31544 (retired record)	SID104192258	64300	3845
CG10357	SID104187947	91538	4336
vig	SID104183422	1.08e5	4837
vig	SID104183423	77135	3415
CG10466	SID104181852	96849	3915
CG5078	SID104191554	1.44e5	6652
Cap-H2	SID104194700	75797	3249
Phf7	SID104200484	1.56e5	5262
msps	SID104196796	79802	4184
CG9171	SID104182944	85611	3543
Prosalpha6	SID104183193	1.09e5	5591
lectin-24Db	SID104180345	82198	3578
Ktch	SID104194886	1.34e5	6398
CG32137	SID104190063	1.17e5	5342
CG32137	SID104190064	94816	5429
Cul1	SID104187437	2727	230
CG13858 (retired record)	SID104194500	1.39e5	8255
CG13858 (retired record)	SID104194501	1.52e5	6889
CG13858 (retired record)	SID104194502	1.47e5	7001
CG13858 (retired record)	SID104194503	1.32e5	7586
CG4546	SID104195385	1.05e5	5014
Zaf1	SID104195913	1.50e5	6965
fz3	SID104198571	1.27e5	5595
unc79	SID104195538	70847	3628
smash	SID104191931	86988	3382
smash	SID104192031	1.21e5	7193
Spn43Ad	SID104186562	1.34e5	4769
CG3032	SID104198058	1.32e5	6210

Individual results from the entries so far:
For “Renilla normaliser, rep 1”, rpr [SID104191182] is entered as 9061
Spn43Ad [SID104186562], Renilla normaliser, rep 1: 4769
Result of CG13858 (retired record) [SID104194502] under “E2F firefly, rep 1”: 1.47e5
Result of CG5078 [SID104191554] under “Renilla normaliser, rep 1”: 6652
Value of Acp53C14b [SID104186361] in “E2F firefly, rep 1”: 1.43e5
Result of PIG-L [SID104195369] under “E2F firefly, rep 1”: 1.42e5

Next records:
gene	PubChem SID	E2F firefly, rep 1	Renilla normaliser, rep 1
CG14000 + bchs	SID104182125	1.44e5	4745
Hsepi	SID104184778	97725	4553
Erk7	SID104197919	1.25e5	5574
Erk7	SID104198019	1.22e5	5581
pim	SID104183383	69643	4203
CG14300	SID104194571	1.41e5	6867
CG6628	SID104190471	97693	5548
Prat	SID104196589	82377	3467
Stam	SID104183236	83900	3569
CG17108	SID104182368	1.50e5	5660
CG9919	SID104200011	1.24e5	5506
RpL37A	SID104182691	1.28e5	5177
CG15561	SID104194892	99950	5644
Atf-2	SID104183922	83739	3247
Atf-2	SID104184205	52143	2503
Grl40a	SID104183469	1.16e5	4422
MED10	SID104190266	1.10e5	7272
CG5787	SID104182687	82192	4258
CG6051	SID104195748	1484	784
CG17806	SID104195068	66494	3314
Sf3b5	SID104194252	96934	6510
spdo	SID104193780	81064	2535
CG10171	SID104189503	88239	4003
Pus1	SID104195340	1.32e5	6897
Ufl1	SID104192319	74018	3348
CG32106	SID104189011	1.34e5	4626
l(2)k05911	SID104182315	53151	3316
upd3	SID104199428	1.54e5	7886
upd3	SID104199760	1.62e5	7242
Ir75a	SID104189980	1.53e5	8308
CG30065	SID104185212	1.31e5	4476
CG17564	SID104182418	1.08e5	4161
Acp26Aa	SID104181647	1.48e5	5178
Cow	SID104193393	53467	3757
Cow	SID104194472	1.10e5	5787
CG2120	SID104197999	1.19e5	6318
CG12093	SID104188044	81817	3301
phtf	SID104184815	83292	3830
Vps13D	SID104189610	1.26e5	6589
Vps13D	SID104189611	1.39e5	6673
HDAC3	SID104192144	64976	3524
CG14907 + Mettl4	SID104194818	1.23e5	6471
CG14907 + Mettl4	SID104194819	1.19e5	6475
CG32085	SID104189930	1.19e5	6294
CG32085	SID104189931	1.26e5	6309
CG32085	SID104190368	1.09e5	5857
